Consider two molecules from publication PMC4990929.

Results are given in words; binding and its absence hold for the method and conditions named. For part of these data: Binding calls can cover weak binding; strength is not graded here. Tags and fused reporters may be left off the sequences shown.

Assay [1] concerns the target BD-TvCBL2 (calcineurin B-like protein 2 from Trichomonas vaginalis, binding domain fusion) (Trichomonas vaginalis). The experiment in a line: two-hybrid.
In assay [2] the target is BD-TvCBL1 (calcineurin B-like protein 1 from Trichomonas vaginalis, binding domain fusion) (Trichomonas vaginalis). Put plainly: two-hybrid.

B1: AtCIPK8 (Arabidopsis thaliana CBL-interacting protein kinase 8), two-hybrid fusion (enzyme, UniProt Q9STV4 1-445)
chain: MVVRKVGKYELGRTIGEGTFAKVKFAQNTETGESVAMKIVDRSTIIKRKMVDQIKREISIMKLVRHPCVVRLYEVLASRTKIYIILEYITGGELFDKIVRNGRLSESEARKYFHQLIDGVDYCHSKGVYHRDLKPENLLLDSQGNLKISDFGLSALPEQGVTILKTTCGTPNYVAPEVLSHKGYNGAVADIWSCGVILYVLMAGYLPFDEMDLPTLYSKIDKAEFSCPSYFALGAKSLINRILDPNPETRITIAEIRKDEWFLKDYTPVQLIDYEHVNLDDVYAAFDDPEEQTYAQDGTRDTGPLTLNAFDLIILSQGLNLATLFDRGKDSMKHQTRFISHKPANVVLSSMEVVSQSMGFKTHIRNYKMRVEGLSANKTSHFSVILEVFKVAPSILMVDIQNAAGDAEEYLKFYKTFCSKLDDIIWKPPDASMRNRVTKAKSKRR
As to B1, the values for the binding entry in assay [1] and in assay [2] were “no binding” and “binds”, respectively.

B2: AtCIPK1 (Arabidopsis thaliana CBL-interacting protein kinase 1), two-hybrid fusion (enzyme, UniProt Q8RWC9 1-444)
chain: MVRRQEEEKKAEKGMRLGKYELGRTLGEGNFGKVKFAKDTVSGHSFAVKIIDKSRIADLNFSLQIKREIRTLKMLKHPHIVRLHEVLASKTKINMVMELVTGGELFDRIVSNGKLTETDGRKMFQQLIDGISYCHSKGVFHRDLKLENVLLDAKGHIKITDFGLSALPQHFRDDGLLHTTCGSPNYVAPEVLANRGYDGAASDIWSCGVILYVILTGCLPFDDRNLAVLYQKICKGDPPIPRWLSPGARTMIKRMLDPNPVTRITVVGIKASEWFKLEYIPSIPDDDDEEEVDTDDDAFSIQELGSEEGKGSDSPTIINAFQLIGMSSFLDLSGFFEQENVSERRIRFTSNSSAKDLLEKIETAVTEMGFSVQKKHAKLRVKQEERNQKGQVGLSVTAEVFEIKPSLNVVELRKSYGDSCLYRQLYERLLKDVGTSSPEQEIVT
As for B2, in assay [1], the binding result is given as “no binding”.
